The list shows a part of the results.

Protein sequences, listed by entry. Tags and fused reporters are not part of them. Lines headed by an entry give the natural chain unless they say otherwise; changes in a name come on top.
UniProt Q8IV08: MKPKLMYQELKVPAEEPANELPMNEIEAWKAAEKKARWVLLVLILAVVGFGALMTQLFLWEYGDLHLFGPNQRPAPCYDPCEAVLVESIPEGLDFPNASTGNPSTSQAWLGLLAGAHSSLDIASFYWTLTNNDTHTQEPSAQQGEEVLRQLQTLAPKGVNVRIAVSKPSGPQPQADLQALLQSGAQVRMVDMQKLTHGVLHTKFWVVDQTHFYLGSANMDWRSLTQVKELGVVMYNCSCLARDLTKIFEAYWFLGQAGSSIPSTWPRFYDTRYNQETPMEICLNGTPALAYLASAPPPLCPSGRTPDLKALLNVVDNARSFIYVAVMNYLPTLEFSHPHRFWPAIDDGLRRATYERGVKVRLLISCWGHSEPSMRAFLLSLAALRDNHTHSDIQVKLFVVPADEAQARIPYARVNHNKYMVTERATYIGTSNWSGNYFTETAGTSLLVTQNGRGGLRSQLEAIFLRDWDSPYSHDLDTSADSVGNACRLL
UniProt Q7RTV0, whole entry, looked up: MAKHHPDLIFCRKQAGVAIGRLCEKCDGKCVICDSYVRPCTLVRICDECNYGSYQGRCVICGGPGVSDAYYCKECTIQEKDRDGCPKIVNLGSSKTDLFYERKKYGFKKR
UniProt Q8NEB9, whole entry, looked up: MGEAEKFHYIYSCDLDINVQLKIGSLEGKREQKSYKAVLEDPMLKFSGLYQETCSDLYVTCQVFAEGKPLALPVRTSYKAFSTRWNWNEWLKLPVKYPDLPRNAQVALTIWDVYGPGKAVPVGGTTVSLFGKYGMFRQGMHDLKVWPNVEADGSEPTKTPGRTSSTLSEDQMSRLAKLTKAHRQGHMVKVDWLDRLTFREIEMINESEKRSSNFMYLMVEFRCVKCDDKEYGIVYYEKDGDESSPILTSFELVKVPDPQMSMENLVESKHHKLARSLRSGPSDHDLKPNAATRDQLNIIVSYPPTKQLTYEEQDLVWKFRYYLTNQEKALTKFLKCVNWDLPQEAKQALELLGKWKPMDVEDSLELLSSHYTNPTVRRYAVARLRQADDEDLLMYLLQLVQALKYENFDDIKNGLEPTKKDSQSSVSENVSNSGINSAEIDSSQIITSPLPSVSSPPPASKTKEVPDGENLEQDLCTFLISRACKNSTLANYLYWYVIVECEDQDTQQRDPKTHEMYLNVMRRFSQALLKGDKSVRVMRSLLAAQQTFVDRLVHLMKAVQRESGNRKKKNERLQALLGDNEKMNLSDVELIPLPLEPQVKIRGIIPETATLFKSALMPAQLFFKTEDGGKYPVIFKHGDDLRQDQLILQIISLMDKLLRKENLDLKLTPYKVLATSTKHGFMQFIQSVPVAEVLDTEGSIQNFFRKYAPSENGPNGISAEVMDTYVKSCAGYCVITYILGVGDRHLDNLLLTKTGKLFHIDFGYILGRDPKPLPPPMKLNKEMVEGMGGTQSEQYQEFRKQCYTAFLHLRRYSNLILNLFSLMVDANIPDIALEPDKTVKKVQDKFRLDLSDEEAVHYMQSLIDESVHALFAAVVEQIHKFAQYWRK
UniProt O00628: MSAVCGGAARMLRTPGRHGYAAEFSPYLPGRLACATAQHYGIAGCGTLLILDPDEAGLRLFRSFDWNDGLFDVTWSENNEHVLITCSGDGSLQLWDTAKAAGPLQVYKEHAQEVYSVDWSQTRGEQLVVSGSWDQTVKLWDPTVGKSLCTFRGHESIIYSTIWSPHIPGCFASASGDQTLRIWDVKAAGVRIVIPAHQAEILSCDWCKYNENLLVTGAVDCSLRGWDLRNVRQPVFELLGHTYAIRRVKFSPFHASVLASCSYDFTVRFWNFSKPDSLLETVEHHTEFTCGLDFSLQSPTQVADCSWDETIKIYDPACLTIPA
UniProt Q8TCG2: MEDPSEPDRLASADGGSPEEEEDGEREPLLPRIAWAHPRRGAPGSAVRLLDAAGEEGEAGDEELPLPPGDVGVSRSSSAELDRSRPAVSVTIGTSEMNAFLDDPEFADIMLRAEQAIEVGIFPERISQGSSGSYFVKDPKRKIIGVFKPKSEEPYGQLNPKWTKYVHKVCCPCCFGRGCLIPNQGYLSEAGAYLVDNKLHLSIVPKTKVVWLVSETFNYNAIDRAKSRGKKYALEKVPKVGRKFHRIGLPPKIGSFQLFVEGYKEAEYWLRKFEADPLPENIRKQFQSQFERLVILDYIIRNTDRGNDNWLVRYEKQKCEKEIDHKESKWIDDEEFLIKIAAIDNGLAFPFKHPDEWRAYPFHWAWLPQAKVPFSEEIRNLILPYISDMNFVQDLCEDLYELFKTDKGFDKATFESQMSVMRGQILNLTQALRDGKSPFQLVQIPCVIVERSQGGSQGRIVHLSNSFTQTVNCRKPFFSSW
UniProt O00625: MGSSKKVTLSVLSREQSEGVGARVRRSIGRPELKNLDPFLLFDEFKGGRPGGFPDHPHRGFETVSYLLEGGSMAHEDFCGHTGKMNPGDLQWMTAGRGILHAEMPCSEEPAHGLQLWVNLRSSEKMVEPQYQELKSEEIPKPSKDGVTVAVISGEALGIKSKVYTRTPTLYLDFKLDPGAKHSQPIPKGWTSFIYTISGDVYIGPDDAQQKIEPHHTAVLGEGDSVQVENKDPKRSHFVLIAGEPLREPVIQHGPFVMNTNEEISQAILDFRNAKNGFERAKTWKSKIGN
UniProt Q8IUZ5: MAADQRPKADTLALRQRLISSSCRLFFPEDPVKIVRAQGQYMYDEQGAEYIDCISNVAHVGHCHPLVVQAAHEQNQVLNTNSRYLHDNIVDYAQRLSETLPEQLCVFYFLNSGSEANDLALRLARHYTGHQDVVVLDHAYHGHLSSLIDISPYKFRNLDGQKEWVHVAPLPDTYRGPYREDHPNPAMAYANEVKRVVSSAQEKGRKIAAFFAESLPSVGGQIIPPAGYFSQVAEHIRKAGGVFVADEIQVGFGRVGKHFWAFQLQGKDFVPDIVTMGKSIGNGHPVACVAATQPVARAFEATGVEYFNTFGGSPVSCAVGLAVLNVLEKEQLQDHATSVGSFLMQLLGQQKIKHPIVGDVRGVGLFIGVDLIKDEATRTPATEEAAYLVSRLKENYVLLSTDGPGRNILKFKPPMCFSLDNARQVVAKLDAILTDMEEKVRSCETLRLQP
UniProt P46019: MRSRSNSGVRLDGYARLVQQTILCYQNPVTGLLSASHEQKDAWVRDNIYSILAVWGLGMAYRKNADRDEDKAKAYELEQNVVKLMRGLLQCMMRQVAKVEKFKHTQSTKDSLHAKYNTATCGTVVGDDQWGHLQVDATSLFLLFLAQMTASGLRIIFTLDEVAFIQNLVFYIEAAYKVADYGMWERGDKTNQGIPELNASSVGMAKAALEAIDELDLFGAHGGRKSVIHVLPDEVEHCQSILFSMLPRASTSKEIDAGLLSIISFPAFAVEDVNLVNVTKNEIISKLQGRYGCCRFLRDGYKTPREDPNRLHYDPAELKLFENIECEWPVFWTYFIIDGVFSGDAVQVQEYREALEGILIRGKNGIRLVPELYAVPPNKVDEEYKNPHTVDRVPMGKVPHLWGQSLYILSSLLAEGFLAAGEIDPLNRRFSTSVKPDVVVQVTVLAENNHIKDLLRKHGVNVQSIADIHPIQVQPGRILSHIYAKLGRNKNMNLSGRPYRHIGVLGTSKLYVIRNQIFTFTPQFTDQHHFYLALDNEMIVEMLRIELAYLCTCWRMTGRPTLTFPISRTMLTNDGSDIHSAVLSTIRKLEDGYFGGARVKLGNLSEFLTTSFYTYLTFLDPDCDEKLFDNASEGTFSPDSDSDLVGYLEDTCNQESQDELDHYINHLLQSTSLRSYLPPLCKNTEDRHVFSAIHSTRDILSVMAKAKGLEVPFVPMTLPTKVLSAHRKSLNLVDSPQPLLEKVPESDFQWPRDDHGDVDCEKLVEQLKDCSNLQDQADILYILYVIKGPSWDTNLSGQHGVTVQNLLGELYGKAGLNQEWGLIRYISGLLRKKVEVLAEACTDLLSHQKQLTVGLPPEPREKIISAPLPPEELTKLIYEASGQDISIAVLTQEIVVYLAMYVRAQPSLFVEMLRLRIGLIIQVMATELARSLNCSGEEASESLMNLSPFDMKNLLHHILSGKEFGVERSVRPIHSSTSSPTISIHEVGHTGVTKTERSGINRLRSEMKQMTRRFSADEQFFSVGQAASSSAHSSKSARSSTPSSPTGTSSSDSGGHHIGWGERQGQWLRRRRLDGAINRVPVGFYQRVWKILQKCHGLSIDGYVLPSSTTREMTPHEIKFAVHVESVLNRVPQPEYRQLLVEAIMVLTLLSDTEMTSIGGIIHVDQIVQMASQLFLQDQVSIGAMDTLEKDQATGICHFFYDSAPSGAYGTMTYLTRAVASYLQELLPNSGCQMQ
UniProt O95394: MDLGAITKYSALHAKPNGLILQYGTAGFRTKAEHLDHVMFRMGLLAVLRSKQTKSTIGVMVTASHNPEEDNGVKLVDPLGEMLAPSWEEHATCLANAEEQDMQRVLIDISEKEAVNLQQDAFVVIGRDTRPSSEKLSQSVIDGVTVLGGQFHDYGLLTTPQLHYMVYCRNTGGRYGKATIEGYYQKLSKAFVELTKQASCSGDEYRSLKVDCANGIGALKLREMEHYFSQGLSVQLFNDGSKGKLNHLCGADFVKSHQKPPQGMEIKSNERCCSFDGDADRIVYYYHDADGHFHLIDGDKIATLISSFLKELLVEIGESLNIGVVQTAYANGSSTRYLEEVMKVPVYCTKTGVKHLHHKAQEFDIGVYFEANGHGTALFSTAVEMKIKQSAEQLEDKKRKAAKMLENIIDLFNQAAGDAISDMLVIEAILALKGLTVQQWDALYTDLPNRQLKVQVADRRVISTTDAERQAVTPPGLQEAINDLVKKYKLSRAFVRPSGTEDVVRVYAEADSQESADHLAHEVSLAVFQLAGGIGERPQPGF
UniProt Q16512: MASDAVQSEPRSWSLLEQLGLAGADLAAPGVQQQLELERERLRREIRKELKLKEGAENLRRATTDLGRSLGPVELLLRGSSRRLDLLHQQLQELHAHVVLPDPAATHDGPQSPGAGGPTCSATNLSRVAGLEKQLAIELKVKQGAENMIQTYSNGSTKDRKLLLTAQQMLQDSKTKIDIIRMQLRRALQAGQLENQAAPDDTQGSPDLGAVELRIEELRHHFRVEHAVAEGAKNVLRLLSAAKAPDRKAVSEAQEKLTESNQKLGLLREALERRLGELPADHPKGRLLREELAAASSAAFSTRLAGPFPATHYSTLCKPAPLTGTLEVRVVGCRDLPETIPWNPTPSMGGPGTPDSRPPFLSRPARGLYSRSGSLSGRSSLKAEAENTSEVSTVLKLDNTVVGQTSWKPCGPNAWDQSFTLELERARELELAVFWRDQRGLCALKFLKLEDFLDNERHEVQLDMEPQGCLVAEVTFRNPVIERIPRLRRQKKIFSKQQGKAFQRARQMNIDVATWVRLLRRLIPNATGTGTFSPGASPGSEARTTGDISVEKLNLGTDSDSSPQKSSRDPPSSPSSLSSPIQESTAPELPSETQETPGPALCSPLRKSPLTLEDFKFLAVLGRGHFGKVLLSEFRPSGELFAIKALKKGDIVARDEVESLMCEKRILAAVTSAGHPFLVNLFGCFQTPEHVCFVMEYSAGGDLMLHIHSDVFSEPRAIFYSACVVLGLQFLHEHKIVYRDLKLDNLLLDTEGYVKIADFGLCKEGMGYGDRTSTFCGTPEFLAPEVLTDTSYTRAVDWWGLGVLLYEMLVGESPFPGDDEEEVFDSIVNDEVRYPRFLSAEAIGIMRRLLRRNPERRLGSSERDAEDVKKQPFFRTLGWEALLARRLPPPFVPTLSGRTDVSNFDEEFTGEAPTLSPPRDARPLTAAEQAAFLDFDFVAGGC
UniProt Q7Z7B1: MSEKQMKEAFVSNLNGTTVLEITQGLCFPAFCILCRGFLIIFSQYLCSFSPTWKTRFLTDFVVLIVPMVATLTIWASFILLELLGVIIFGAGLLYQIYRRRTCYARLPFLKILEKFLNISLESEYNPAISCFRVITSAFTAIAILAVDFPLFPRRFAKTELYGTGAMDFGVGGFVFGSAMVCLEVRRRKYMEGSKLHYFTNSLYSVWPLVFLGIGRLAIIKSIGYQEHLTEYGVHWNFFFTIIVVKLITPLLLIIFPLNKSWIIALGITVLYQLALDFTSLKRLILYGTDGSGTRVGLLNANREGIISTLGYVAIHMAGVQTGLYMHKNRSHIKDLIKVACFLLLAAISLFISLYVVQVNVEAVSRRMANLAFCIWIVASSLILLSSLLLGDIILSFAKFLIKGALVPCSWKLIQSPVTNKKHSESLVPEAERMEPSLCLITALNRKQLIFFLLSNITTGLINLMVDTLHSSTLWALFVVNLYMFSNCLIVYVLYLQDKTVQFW
UniProt Q8N4L2: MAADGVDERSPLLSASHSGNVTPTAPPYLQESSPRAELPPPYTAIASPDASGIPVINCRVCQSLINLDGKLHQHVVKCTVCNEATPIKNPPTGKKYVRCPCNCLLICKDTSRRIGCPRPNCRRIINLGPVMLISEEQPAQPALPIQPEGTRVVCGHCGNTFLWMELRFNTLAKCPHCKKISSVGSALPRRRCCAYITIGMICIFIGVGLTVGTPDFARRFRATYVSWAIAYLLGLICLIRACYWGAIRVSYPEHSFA

Compound in the first assay: CN1CCN(CCOc2cc(OC3CCOCC3)c3c(Nc4c(Cl)ccc5c4OCO5)ncnc3c2)CC1 [saracatinib]
Nature of the assay: log2 fold change, soluble protein after heating vs DMSO (PISA); higher = thermal stabilisation; K562 cells, 10 uM, 30 min; active = over 0.2 and 3.5 SD of the protein, either way, in both replicates (recomputed). In short, it runs like this: (§1)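 Values are thermal stability changes relative to control samples and are taken from duplicates. They are stated as log2 fold changes. Before quantification by TMTpro 16plex LC-MS/MS with equalised channel sums, K562 cells at 2×10^6 cells/mL were treated with 10 μM compound for 30 min, heated in aliquots for 3 min across 48°C-58°C, pooled, extracted in PBS with 0.5% NP-40 at 4°C, and centrifuged at 21,000xg for 90 min to give the soluble supernatant.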
With PLD3 (UniProt Q8IV08), the log2 fold change was inactive: 0.034.
The same measure, in the same setting: in the case of PHF5A (UniProt Q7RTV0) it was inactive: 0.069.
The same measure, in the same setting: as for PLA2G15 (UniProt Q8NCC3), the figure is inactive: -0.052; as for PIGT (UniProt Q969N2), inactive: -0.024; as for PISD (UniProt Q9UG56), inactive: -0.095.
Same read-out and setting: as for PIK3C3 (UniProt Q8NEB9), the figure is inactive: -0.007.
In the case of PHF19 isoform 2 (UniProt Q5T6S3), the log2 fold change is inactive: -0.009.
On the same count and under the same terms, as for PKM (UniProt P14618), the figure is inactive: 0.012.
The same measure, in the same setting: in the case of PIP4K2C (UniProt Q8TBX8) it was inactive: -0.049.
Still for that read-out and setting: as for PEX5 isoform 4 (UniProt P50542), the figure is inactive: -0.425.
As for PIK3R1 (UniProt P27986), the log2 fold change was inactive: 0.014.
Still for that read-out and setting: in the case of PEX7 (UniProt O00628) it was inactive: 0.045.
On the same count and under the same terms, in the case of PIP4K2A (UniProt P48426) it was inactive: 0.048; in that of PHKA1 (UniProt P46020), inactive: -0.12; in that of PJA2 (UniProt O43164), inactive: -0.057.
Same read-out and setting: in the case of PIKFYVE (UniProt Q9Y2I7) it was inactive: -0.001; in that of PI4K2B (UniProt Q8TCG2), inactive: -0.067; in that of PLCG1 isoform 2 (UniProt P19174), inactive: -0.131.
PGGT1B (UniProt P53609): the log2 fold change is inactive: 0.
Still for that read-out and setting: in the case of PIR (UniProt O00625) it was inactive: 0.025; in that of PHYKPL (UniProt Q8IUZ5), inactive: -0.272.
On the same count and under the same terms, in the case of PHKA2 (UniProt P46019) it was inactive: 0.032; in that of PIP4K2B (UniProt P78356), inactive: -0.021.
The same measure, in the same setting: in the case of PLBD1 (UniProt Q6P4A8) it was inactive: 0.024.
As for PIP5K1C isoform 3 (UniProt O60331), the log2 fold change was inactive: -0.011.
Same read-out and setting: as for PLBD2 (UniProt Q8NHP8), the figure is inactive: 0.033.
Same read-out and setting: in the case of PFDN1 (UniProt O60925) it was inactive: -0.074; in that of PHKG2 (UniProt P15735), inactive: 0.002.
With PIP4P1 isoform 2 (UniProt Q86T03), the log2 fold change is inactive: 0.014.
On to PGM3 isoform 4 (UniProt O95394), for which the log2 fold change is inactive: -0.028.
The same measure, in the same setting: as for PGGHG (UniProt Q32M88), the figure is inactive: 0.061; as for PIK3CB (UniProt P42338), inactive: -0.019; as for PITRM1 isoform 2 (UniProt Q5JRX3), inactive: -0.016.
Still for that read-out and setting: in the case of PKN1 isoform 2 (UniProt Q16512) it was inactive: -0.018.
For the target PIGG (UniProt Q5H8A4), the log2 fold change is inactive: -0.02.
On the same count and under the same terms, in the case of PFAS (UniProt O15067) it was inactive: -0.043; in that of PHAX (UniProt Q9H814), inactive: 0.013; in that of PIGW (UniProt Q7Z7B1), inactive: -0.061.
On the same count and under the same terms, as for PLCB3 (UniProt Q01970), the figure is inactive: -0.044; as for PIP4P2 (UniProt Q8N4L2), inactive: 0.056.

Compound in the next assay: CN1CCN(c2nc(C3=C(c4c[nH]c5ccccc45)C(=O)NC3=O)c3ccccc3n2)CC1 [sotrastaurin]
Described as above. The method, boiled down:
as §1
With PLD3 (UniProt Q8IV08), the log2 fold change is inactive: 0.013.
Same read-out and setting: in the case of PHF5A (UniProt Q7RTV0) it was inactive: 0.047.
The same measure, in the same setting: as for PLA2G15 (UniProt Q8NCC3), the figure is inactive: -0.095; as for PIGT (UniProt Q969N2), inactive: -0.023.
On the same count and under the same terms, in the case of PISD (UniProt Q9UG56) it was inactive: 0.061.
On to PIK3C3 (UniProt Q8NEB9), for which the log2 fold change was inactive: -0.039.
As for PHF19 isoform 2 (UniProt Q5T6S3), the log2 fold change was inactive: -0.025.
For the target PKM (UniProt P14618), the log2 fold change was inactive: 0.024.
The same measure, in the same setting: as for PIP4K2C (UniProt Q8TBX8), the figure is inactive: -0.035.
Same read-out and setting: in the case of PEX5 isoform 4 (UniProt P50542) it was inactive: -0.207; in that of PIK3R1 (UniProt P27986), inactive: 0.001.
As for PEX7 (UniProt O00628), the log2 fold change was inactive: 0.06.
As to PIP4K2A (UniProt P48426), the log2 fold change was inactive: 0.011.
Still for that read-out and setting: in the case of PHKA1 (UniProt P46020) it was inactive: 0.058.
The same measure, in the same setting: as for PJA2 (UniProt O43164), the figure is inactive: -0.014; as for PIKFYVE (UniProt Q9Y2I7), inactive: -0.081; as for PI4K2B (UniProt Q8TCG2), inactive: 0.04.
The same measure, in the same setting: in the case of PLCG1 isoform 2 (UniProt P19174) it was inactive: -0.005; in that of PGGT1B (UniProt P53609), inactive: 0.121.
In the case of PIR (UniProt O00625), the log2 fold change was inactive: -0.01.
The same measure, in the same setting: as for PHYKPL (UniProt Q8IUZ5), the figure is inactive: -0.084; as for PHKA2 (UniProt P46019), inactive: -0.085; as for PIP4K2B (UniProt P78356), inactive: -0.088.
Take PLBD1 (UniProt Q6P4A8): the log2 fold change is inactive: 0.071.
Still for that read-out and setting: in the case of PIP5K1C isoform 3 (UniProt O60331) it was inactive: 0.134.
Same read-out and setting: as for PLBD2 (UniProt Q8NHP8), the figure is inactive: 0.031; as for PFDN1 (UniProt O60925), inactive: -0.014; as for PHKG2 (UniProt P15735), inactive: -0.071.
Still for that read-out and setting: as for PIP4P1 isoform 2 (UniProt Q86T03), the figure is inactive: -0.108; as for PGM3 isoform 4 (UniProt O95394), inactive: -0.018; as for PGGHG (UniProt Q32M88), inactive: -0.014.
For PIK3CB (UniProt P42338), the log2 fold change was inactive: 0.01.
The same measure, in the same setting: in the case of PITRM1 isoform 2 (UniProt Q5JRX3) it was inactive: -0.045; in that of PKN1 isoform 2 (UniProt Q16512), active: -0.645.
Still for that read-out and setting: in the case of PIGG (UniProt Q5H8A4) it was inactive: -0.015; in that of PFAS (UniProt O15067), inactive: 0; in that of PHAX (UniProt Q9H814), inactive: 0.001.
With PIGW (UniProt Q7Z7B1), the log2 fold change was inactive: 0.009.
Consider PLCB3 (UniProt Q01970), for which the log2 fold change was inactive: -0.039.
The same measure, in the same setting: in the case of PIP4P2 (UniProt Q8N4L2) it was inactive: -0.003.

For the origin of these results see the supplement of paper PMC10849652.
